Article PMC8777168 (2022)
These are yes or no findings as the source states them, for the method shown. In cells and extracts the contact can be indirect. Binding calls can cover weak binding; strength is not graded here.

Target: T1, MIF in 293T cells (UniProt P14174)
T1 sequence: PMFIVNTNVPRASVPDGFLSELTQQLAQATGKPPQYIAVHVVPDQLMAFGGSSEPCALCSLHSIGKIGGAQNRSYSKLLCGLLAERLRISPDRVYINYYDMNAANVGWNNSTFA
Assay: co-IP; 293T cells transfected for 24 h with STUB1 truncation or mutation plasmids, lysed, coimmunoprecipitation and western blotting

binding: binds
Substance: N-terminus of STUB1 (domain or fragment)
